In paper PMC9765618 one finds binding data, which are given here for 2 substances.

Chains of the proteins cited; added tags and fusions are not shown. Lines headed by an entry give the natural chain unless they say otherwise; changes in a name come on top. A line that says so, or that is headed by a name, gives the form on record, which may keep a tag or linker.
Flag-tagged human Sp100A (P23497, form named): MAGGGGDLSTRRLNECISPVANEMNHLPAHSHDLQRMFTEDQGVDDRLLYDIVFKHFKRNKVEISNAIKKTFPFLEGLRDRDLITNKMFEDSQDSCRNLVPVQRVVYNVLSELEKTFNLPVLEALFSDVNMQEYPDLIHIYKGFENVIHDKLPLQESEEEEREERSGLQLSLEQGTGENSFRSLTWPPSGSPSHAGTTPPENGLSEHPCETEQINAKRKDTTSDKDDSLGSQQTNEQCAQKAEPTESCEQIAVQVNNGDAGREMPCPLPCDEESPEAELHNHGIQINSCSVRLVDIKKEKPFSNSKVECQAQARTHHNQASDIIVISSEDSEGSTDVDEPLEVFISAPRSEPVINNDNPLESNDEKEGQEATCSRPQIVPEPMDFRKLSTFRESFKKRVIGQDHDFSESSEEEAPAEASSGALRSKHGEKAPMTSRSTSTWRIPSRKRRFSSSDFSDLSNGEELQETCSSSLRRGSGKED
UniProt P14618: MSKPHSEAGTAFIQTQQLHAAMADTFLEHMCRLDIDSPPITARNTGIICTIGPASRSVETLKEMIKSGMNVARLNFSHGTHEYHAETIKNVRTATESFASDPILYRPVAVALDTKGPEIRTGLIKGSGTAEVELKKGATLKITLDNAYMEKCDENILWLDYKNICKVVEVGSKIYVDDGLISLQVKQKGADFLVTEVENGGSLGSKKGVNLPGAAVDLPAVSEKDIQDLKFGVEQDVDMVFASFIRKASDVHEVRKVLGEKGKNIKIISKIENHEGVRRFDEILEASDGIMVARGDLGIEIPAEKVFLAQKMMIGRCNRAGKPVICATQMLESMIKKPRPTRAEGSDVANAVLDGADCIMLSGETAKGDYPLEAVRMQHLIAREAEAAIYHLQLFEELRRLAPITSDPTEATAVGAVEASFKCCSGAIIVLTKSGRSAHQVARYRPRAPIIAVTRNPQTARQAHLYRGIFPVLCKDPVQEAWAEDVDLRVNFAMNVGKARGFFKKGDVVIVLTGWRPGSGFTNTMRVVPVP

No constants are given. Whether binding was seen depends on the method and setting. In cells and extracts the contact can be indirect. Binding can be weak; no strength is given.

Test [1] concerns the target Flag-Sp100A NLS mutant (human) (UniProt P23497). In words: co-IP; cotransfected Flag and HA constructs; whole-cell lysates immunoprecipitated with anti-Flag antibody, blotted with anti-HA and anti-Flag.
For test [2], the target named is Flag-tagged human Sp100A (human) (UniProt P23497). Described as above.

On to “HA-tagged human PKM2 (from UniProt P14618 1-531) (enzyme)”, for which, in test [1], the binding entry is “binds”. As to “truncated HA-PKM2, B1 domain (aa 116 to 218) (from UniProt P14618) (domain or fragment)”, the binding result in test [2] is recorded as “binds”.
